Data reported in the supplement of paper PMC10849652.
The list shows a part of the results.

Sequences of proteins named here, by UniProt entry; tags and fusion partners are left off. A change or cut given only in a name is not applied to a line headed by its entry.
UniProt P30291: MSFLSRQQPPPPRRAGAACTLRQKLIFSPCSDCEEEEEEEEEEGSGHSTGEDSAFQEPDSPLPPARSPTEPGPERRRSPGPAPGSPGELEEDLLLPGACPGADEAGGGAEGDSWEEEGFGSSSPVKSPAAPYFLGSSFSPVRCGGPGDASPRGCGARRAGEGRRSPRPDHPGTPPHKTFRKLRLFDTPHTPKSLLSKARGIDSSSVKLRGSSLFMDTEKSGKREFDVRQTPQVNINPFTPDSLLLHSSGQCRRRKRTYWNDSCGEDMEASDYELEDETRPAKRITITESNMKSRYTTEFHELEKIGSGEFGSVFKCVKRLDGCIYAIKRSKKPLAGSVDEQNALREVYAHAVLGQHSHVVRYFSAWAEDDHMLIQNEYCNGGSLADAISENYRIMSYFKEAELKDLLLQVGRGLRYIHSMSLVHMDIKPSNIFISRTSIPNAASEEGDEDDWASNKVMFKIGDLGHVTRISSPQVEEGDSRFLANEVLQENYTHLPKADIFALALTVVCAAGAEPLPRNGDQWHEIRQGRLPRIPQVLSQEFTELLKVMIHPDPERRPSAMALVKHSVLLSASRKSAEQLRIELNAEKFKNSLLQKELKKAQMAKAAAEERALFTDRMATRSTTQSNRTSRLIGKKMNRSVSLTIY
UniProt Q9NNW5: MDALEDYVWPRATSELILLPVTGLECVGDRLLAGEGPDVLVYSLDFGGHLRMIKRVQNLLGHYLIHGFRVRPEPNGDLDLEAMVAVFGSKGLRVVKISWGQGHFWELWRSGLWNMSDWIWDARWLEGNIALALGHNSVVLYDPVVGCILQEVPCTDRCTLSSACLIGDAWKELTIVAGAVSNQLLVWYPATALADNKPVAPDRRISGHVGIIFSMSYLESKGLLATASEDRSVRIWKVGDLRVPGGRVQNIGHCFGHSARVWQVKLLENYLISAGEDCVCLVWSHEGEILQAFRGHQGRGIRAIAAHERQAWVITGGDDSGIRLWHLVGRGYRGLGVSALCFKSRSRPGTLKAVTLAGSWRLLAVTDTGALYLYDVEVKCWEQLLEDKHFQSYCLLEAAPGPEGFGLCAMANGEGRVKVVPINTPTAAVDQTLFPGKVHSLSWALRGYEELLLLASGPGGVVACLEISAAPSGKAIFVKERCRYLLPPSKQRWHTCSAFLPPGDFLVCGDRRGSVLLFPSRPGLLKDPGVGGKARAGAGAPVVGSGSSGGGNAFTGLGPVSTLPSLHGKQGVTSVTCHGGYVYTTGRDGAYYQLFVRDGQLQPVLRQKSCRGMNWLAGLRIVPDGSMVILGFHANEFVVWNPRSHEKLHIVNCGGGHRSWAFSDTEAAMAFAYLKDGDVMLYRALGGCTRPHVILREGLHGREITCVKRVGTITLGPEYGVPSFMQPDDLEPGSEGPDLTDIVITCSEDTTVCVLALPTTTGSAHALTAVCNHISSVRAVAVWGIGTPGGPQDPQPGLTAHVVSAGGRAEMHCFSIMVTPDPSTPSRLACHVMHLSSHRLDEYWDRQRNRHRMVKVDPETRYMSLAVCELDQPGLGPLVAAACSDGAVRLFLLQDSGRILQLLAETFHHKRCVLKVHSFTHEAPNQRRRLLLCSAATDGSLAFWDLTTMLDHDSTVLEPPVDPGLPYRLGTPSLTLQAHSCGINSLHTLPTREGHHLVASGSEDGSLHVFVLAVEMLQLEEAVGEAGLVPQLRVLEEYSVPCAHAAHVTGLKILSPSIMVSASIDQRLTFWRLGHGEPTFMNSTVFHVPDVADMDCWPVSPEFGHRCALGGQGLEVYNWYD
UniProt Q7Z7G8: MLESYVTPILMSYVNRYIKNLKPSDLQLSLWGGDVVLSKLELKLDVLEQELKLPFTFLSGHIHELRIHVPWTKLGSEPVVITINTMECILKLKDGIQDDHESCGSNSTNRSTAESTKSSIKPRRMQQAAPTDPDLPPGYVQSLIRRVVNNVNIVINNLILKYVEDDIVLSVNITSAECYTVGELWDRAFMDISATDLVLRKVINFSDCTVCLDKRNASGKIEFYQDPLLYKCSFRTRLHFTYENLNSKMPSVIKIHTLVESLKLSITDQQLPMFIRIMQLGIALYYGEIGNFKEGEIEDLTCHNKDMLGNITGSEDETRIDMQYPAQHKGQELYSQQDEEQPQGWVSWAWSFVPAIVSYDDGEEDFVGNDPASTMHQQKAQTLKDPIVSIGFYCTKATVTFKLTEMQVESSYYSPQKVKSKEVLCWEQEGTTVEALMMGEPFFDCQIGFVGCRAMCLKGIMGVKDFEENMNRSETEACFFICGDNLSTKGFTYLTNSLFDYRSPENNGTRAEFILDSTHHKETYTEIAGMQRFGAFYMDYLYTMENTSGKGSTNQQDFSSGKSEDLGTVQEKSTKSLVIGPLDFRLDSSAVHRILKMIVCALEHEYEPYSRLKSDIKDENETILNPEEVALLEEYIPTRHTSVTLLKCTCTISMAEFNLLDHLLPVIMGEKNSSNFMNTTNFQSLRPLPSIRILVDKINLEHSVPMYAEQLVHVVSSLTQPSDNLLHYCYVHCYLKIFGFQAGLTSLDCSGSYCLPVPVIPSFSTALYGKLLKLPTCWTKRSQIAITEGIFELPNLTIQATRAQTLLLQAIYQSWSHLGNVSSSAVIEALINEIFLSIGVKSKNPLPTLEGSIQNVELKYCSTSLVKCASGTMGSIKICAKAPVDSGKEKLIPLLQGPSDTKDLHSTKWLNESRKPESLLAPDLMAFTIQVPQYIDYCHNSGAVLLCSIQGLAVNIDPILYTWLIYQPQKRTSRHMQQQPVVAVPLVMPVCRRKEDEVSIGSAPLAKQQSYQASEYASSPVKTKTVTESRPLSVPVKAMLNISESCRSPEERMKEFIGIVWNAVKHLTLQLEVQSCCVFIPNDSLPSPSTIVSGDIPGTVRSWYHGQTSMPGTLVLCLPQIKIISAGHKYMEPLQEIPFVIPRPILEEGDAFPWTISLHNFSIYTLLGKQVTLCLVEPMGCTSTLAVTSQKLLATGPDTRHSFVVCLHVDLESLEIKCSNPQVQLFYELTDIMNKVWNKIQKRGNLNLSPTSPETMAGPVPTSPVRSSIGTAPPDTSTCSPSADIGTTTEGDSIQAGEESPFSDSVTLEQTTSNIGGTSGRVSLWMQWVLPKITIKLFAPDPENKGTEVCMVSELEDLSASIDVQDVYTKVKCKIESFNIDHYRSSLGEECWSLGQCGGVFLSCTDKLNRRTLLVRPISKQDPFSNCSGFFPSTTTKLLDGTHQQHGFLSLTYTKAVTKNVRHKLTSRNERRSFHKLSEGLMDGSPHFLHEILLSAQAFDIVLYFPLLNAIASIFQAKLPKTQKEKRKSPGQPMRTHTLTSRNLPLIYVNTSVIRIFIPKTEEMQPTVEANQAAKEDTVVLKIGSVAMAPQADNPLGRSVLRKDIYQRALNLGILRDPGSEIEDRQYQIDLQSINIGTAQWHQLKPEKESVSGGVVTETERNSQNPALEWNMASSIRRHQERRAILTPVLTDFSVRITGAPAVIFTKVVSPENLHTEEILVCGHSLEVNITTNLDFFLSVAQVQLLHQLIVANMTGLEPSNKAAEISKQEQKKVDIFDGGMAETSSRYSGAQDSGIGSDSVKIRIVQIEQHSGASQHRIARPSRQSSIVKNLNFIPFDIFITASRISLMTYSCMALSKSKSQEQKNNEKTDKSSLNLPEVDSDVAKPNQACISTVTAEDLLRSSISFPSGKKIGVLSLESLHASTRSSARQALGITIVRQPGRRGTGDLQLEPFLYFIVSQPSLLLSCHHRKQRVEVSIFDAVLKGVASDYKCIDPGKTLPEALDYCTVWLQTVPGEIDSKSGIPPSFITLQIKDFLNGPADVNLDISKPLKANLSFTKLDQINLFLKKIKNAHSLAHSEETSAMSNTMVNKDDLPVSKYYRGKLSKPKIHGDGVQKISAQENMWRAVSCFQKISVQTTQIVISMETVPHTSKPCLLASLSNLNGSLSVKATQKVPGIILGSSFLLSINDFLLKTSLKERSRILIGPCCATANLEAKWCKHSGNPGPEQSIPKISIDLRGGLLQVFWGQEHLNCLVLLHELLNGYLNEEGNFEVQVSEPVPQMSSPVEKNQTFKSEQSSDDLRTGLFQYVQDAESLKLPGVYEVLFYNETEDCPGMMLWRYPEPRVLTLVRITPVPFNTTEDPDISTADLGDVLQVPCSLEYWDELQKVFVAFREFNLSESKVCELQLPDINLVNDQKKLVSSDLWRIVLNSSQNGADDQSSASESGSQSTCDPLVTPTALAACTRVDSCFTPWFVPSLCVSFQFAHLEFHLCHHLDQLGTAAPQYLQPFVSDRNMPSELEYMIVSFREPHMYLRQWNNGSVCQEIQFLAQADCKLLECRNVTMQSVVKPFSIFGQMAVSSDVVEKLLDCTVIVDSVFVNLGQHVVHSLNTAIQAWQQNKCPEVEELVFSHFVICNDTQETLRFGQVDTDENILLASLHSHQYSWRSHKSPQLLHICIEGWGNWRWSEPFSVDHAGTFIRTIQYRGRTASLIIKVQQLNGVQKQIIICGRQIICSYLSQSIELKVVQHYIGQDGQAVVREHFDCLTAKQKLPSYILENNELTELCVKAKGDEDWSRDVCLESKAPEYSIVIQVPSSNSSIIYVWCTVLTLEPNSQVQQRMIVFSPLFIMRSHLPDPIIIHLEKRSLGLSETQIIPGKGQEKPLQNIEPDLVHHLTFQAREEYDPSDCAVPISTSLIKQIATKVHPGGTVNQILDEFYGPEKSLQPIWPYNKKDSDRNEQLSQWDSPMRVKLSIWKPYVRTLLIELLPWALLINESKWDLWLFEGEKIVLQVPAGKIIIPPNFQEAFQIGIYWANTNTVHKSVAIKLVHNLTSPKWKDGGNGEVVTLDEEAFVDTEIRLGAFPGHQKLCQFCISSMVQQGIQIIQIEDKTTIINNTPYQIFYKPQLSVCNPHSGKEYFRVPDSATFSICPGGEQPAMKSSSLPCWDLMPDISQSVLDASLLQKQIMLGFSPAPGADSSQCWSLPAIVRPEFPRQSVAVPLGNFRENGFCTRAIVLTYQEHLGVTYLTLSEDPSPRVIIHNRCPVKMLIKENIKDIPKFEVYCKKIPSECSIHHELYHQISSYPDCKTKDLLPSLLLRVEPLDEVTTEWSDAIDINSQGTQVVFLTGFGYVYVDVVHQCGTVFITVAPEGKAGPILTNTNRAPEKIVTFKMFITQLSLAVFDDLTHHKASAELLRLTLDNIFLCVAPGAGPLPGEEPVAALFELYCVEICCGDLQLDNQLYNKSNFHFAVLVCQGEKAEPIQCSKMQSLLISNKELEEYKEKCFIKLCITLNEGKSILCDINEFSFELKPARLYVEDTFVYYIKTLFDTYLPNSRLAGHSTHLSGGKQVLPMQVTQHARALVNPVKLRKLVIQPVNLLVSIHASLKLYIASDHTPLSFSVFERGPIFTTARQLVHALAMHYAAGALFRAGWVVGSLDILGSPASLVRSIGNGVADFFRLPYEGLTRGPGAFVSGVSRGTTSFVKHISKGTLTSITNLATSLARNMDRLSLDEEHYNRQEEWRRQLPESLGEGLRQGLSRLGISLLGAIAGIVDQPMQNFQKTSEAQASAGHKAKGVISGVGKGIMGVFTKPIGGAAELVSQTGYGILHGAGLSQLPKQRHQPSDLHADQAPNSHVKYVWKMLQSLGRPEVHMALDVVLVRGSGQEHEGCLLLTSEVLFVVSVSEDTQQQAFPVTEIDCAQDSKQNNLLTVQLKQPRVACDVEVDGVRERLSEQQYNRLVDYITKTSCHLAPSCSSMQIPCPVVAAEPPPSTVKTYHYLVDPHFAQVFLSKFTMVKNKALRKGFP
UniProt Q8N9V3: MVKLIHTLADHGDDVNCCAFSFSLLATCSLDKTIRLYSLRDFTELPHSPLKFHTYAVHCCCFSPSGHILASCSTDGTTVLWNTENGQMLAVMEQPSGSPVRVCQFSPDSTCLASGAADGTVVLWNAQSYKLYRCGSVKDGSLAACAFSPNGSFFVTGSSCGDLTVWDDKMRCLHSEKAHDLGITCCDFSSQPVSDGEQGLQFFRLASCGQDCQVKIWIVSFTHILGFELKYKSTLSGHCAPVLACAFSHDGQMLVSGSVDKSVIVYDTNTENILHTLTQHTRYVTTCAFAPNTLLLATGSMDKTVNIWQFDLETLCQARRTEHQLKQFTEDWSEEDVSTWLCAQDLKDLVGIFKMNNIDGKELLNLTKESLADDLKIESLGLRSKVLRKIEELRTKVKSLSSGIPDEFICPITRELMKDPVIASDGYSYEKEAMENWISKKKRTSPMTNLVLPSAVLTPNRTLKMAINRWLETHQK
UniProt Q9H977: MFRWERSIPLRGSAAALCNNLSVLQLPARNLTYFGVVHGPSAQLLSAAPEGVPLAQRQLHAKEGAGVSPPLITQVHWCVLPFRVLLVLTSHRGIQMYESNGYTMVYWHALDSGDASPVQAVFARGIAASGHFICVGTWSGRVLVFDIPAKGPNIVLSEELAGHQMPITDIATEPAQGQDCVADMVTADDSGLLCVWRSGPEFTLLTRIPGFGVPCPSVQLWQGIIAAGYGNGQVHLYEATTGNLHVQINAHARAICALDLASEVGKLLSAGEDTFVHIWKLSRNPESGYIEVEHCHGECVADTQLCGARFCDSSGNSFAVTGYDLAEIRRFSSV

How the values were obtained:
Assay in all cases: log2 fold change, soluble protein after heating vs DMSO (PISA); higher = thermal stabilisation; K562 lysate, 10 uM; active = over 0.2 and 3.5 SD of the protein, either way, in both replicates (recomputed)
[1] = compound: Cc1cn(-c2cc(NC(=O)c3ccc(C)c(Nc4nccc(-c5cccnc5)n4)c3)cc(C(F)(F)F)c2)cn1 [nilotinib]
Procedure, shortened: (§1)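 Quantification was by TMTpro 16plex LC-MS/MS with equalised channel sums, applied to the supernatant after 21,000xg for 90 min. Samples were crude K562 extract at 1 mg/mL protein in PBS pH 7.4 with 1 mM MgCl2, treated with 10 μM compound for 30 min, heated for 3 min across 48°C-58°C, pooled and brought to 0.5% NP-40 at 4°C. Values are log-two fold changes in thermal stability relative to solvent controls, from duplicates.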

[2] = compound: Cc1nc(Nc2n[nH]c3c2CN(C(=O)N[C@H](CN(C)C)c2ccccc2)C3(C)C)c2sccc2n1
Procedure, shortened: as §1

[3] = compound: Cc1nc(Nc2ncc(C(=O)Nc3c(C)cccc3Cl)s2)cc(N2CCN(CCO)CC2)n1 [dasatinib]
Procedure, shortened: as §1

[4] = compound: Cc1ncc(-c2ccnc(Nc3ccc(S(C)(=O)=O)cc3)n2)n1C(C)C
Procedure, shortened: as §1

[5] = compound: Cn1cc(-c2ccc3c(c2)CCN3C(=O)Cc2cccc(C(F)(F)F)c2)c2c(N)ncnc21
Procedure, shortened: as §1

[6] = compound: Cn1cc(CNCC2CCN(c3ncc(C(=O)NO)cn3)CC2)c2ccccc21 [quisinostat]
Procedure, shortened: as §1

[7] = compound: Cn1cncc1[C@@](N)(c1ccc(Cl)cc1)c1ccc2c(c1)c(-c1cccc(Cl)c1)cc(=O)n2C [tipifarnib]
Procedure, shortened: as §1

[8] = compound: NC(=O)Nc1cc(-c2cccc(F)c2)sc1C(=O)N[C@H]1CCCNC1
Procedure, shortened: as §1

[9] = compound: NC(=O)c1cnc(N[C@@H]2CCCC[C@@H]2N)nc1Nc1cccc(-n2nccn2)c1
Procedure, shortened: as §1

[10] = compound: NC1(c2ccc(-c3nc4ccn5c(=O)[nH]nc5c4cc3-c3ccccc3)cc2)CCC1
Procedure, shortened: as §1

[11] = compound: NCC(=O)Nc1ccc(-n2nc(C(F)(F)F)cc2-c2ccc3c(ccc4ccccc43)c2)cc1
Procedure, shortened: as §1

[12] = compound: O=C(CCCCCCC(=O)Nc1ccccc1)NO [vorinostat]
Procedure, shortened: as §1

[13] = compound: O=C(O)c1ccc2c(c1)nc(Nc1cccc(Cl)c1)c1ccncc12 [silmitasertib]
Procedure, shortened: as §1

[14] = compound: O=C1NC(=O)C(c2cnc3ccccn23)=C1c1cn2c3c(cc(F)cc13)CN(C(=O)N1CCCCC1)CC2
Procedure, shortened: as §1

[15] = compound: c1cn2cc(-c3ccc4cn[nH]c4c3)nc(Nc3ccc(N4CCOCC4)cc3)c2n1 [entospletinib]
Procedure, shortened: as §1

Measured: log2 fold change

VPS51 (UniProt Q9UID3)
inactive: [1] -0.018 | [2] -0.008 | [3] -0.032 | [4] 0.005 | [5] 0.01 | [6] 0.038 | [7] -0.015 | [8] 0.036 | [9] 0.035 | [10] -0.017 | [11] -0.003 | [12] -0.24 | [13] 0.025 | [14] -0.018 | [15] -0.015

WDR5 (UniProt P61964)
inactive: [1] -0.003 | [2] 0.036 | [3] -0.02 | [4] 0.029 | [5] -0.005 | [6] -0.024 | [7] -0.031 | [8] 0.096 | [9] -0.027 | [10] 0.007 | [11] -0.016 | [12] 0.029 | [13] 0.011 | [14] 0.092 | [15] 0.077

WBP2 (UniProt Q969T9)
inactive: [1] 0.021 | [2] 0.03 | [3] 0.056 | [4] -0.012 | [5] -0.015 | [6] 0.085 | [7] 0.042 | [8] -0.025 | [9] -0.015 | [10] -0.025 | [11] -0.004 | [12] 0.136 | [13] -0.017 | [14] 0.021 | [15] 0.05

VTI1A (UniProt Q96AJ9)
inactive: [1] -0.007 | [2] -0.028 | [3] -0.012 | [4] 0.017 | [5] 0.02 | [6] -0.007 | [7] 0.049 | [8] 0.037 | [9] -0.049 | [10] -0.006 | [11] -0.064 | [12] 0.141 | [13] -0.012 | [14] -0.044 | [15] -0.026

WASL (UniProt O00401)
inactive: [1] -0.055 | [2] 0.031 | [3] 0.008 | [4] -0.008 | [5] 0.04 | [6] -0.065 | [7] 0.121 | [8] 0.022 | [9] 0.026 | [10] -0.008 | [11] -0.052 | [12] -0.186 | [13] -0.079 | [14] 0.063 | [15] -0.056

WDR33 (UniProt Q9C0J8)
inactive: [1] -0.052 | [2] 0.031 | [3] 0.008 | [4] 0.106 | [5] 0.007 | [6] -0.028 | [7] 0.026 | [8] 0.055 | [9] -0.029 | [10] -0.011 | [11] -0.002 | [12] -0.015 | [13] -0.019 | [14] 0.011 | [15] -0.08

WASHC4 (UniProt Q2M389)
inactive: [1] 0.013 | [2] 0 | [3] -0.001 | [4] 0.021 | [5] 0.041 | [6] -0.038 | [7] -0.005 | [8] 0.003 | [9] 0.006 | [10] -0.049 | [11] 0.001 | [12] 0.068 | [13] 0.025 | [14] -0.002 | [15] 0.005

VPS4B (UniProt O75351)
inactive: [1] 0.049 | [2] 0.004 | [3] -0.053 | [4] -0.031 | [5] 0.014 | [6] 0.072 | [7] -0.022 | [8] 0.024 | [9] 0.007 | [10] -0.036 | [11] 0.03 | [12] -0.182 | [13] 0.034 | [14] -0.023 | [15] 0.034

WEE1 (UniProt P30291)
active: [3] 0.397 | [12] -0.52
inactive: [1] -0.002 | [2] 0.001 | [4] -0.033 | [5] -0.002 | [6] -0.069 | [7] -0.007 | [8] 0.223 | [9] -0.106 | [10] -0.044 | [11] 0.023 | [13] 0.107 | [14] -0.03 | [15] -0.007

WIPF3 (UniProt A6NGB9)
inactive: [1] 0.041 | [2] -0.032 | [3] -0.045 | [4] 0.025 | [5] 0.036 | [6] 0.007 | [7] 0.009 | [8] -0.006 | [9] -0.004 | [10] 0.014 | [11] -0.018 | [12] 0.068 | [13] -0.045 | [14] 0.016 | [15] 0.016

WNK1 isoform 7 (UniProt Q9H4A3)
inactive: [1] 0.019 | [2] -0.011 | [3] 0.084 | [4] 0.004 | [5] 0.061 | [6] -0.031 | [7] 0.006 | [8] 0.009 | [9] 0.007 | [10] -0.005 | [11] 0.021 | [12] -0.058 | [13] 0.025 | [14] -0.009 | [15] -0.015

WDR6 (UniProt Q9NNW5)
active: [12] -0.321
inactive: [1] -0.017 | [2] 0.002 | [3] -0.018 | [4] -0.003 | [5] 0.026 | [6] -0.075 | [7] 0.036 | [8] 0.033 | [9] 0.006 | [10] -0.032 | [11] 0.012 | [13] 0.01 | [14] -0.025 | [15] 0

VPS13B (UniProt Q7Z7G8)
inactive: [1] -0.045 | [2] 0.05 | [3] 0.072 | [4] -0.038 | [5] -0.045 | [6] -0.12 | [7] 0.041 | [8] -0.07 | [9] -0.116 | [10] -0.051 | [11] -0.081 | [12] -0.087 | [13] 0.024 | [14] 0.08 | [15] -0.018

WDR11 (UniProt Q9BZH6)
inactive: [1] -0.098 | [2] 0 | [3] -0.018 | [4] 0.003 | [5] 0.008 | [6] -0.188 | [7] -0.007 | [8] -0.005 | [9] 0.066 | [10] -0.015 | [11] 0.069 | [12] -0.098 | [13] 0.062 | [14] -0.054 | [15] 0.008

VWA8 (UniProt A3KMH1)
inactive: [1] -0.088 | [2] 0.246 | [3] -0.037 | [4] 0.294 | [5] 0.016 | [6] 0.035 | [7] -0.307 | [8] 0.013 | [9] -0.077 | [10] -0.06 | [11] -0.117 | [12] -0.529 | [13] 0.026 | [14] -0.058 | [15] 0.039

WDTC1 (UniProt Q8N5D0)
inactive: [1] 0.054 | [2] -0.053 | [3] -0.054 | [4] -0.039 | [5] 0.004 | [6] -0.003 | [7] 0.007 | [8] 0.005 | [9] 0.013 | [10] -0.05 | [11] -0.005 | [12] 0.033 | [13] -0.111 | [14] 0.029 | [15] 0.019

VPS45 (UniProt Q9NRW7)
inactive: [1] -0.015 | [2] -0.008 | [3] -0.01 | [4] -0.021 | [5] -0.008 | [6] -0.022 | [7] 0.028 | [8] 0.041 | [9] 0.008 | [10] -0.014 | [11] -0.047 | [12] -0.059 | [13] -0.002 | [14] -0.022 | [15] -0.001

WAC (UniProt Q9BTA9)
inactive: [1] -0.012 | [2] -0.001 | [3] -0.038 | [4] -0.019 | [5] 0.002 | [6] -0.029 | [7] 0 | [8] 0.019 | [9] -0.01 | [10] 0.004 | [11] 0.011 | [13] -0.031 | [14] -0.014 | [15] -0.046
active: [12] -0.309

WDSUB1 (UniProt Q8N9V3)
inactive: [1] -0.038 | [2] -0.024 | [3] 0.025 | [4] 0.004 | [5] 0.014 | [6] -0.07 | [7] 0.009 | [8] 0.012 | [9] 0.004 | [10] -0.029 | [11] 0.001 | [12] 0.032 | [13] 0.008 | [14] -0.019 | [15] -0.002

WSB1 (UniProt Q9Y6I7)
inactive: [3] -0.194 | [5] 0.012

WDR66 (UniProt Q8TBY9)
inactive: [11] 0.069

Random excerpt: two records from the list.
VPS45 (UniProt Q9NRW7)
inactive: [1] -0.015 | [2] -0.008 | [3] -0.01 | [4] -0.021 | [5] -0.008 | [6] -0.022 | [7] 0.028 | [8] 0.041 | [9] 0.008 | [10] -0.014 | [11] -0.047 | [12] -0.059 | [13] -0.002 | [14] -0.022 | [15] -0.001

WDSUB1 (UniProt Q8N9V3)
inactive: [1] -0.038 | [2] -0.024 | [3] 0.025 | [4] 0.004 | [5] 0.014 | [6] -0.07 | [7] 0.009 | [8] 0.012 | [9] 0.004 | [10] -0.029 | [11] 0.001 | [12] 0.032 | [13] 0.008 | [14] -0.019 | [15] -0.002

(list continues)

WDR54 isoform 4 (UniProt Q9H977)
inactive: [3] 0.14 | [5] -0.083 | [6] -0.09 | [8] 0.056 | [11] -0.116 | [14] 0.025 | [15] 0
